From the M2OR odorant receptor database come the findings set out here.

Amino acid sequences for entries named in this document (tags omitted). A change or cut given only in a name is not applied to a line headed by its entry.
UniProt Q8N350: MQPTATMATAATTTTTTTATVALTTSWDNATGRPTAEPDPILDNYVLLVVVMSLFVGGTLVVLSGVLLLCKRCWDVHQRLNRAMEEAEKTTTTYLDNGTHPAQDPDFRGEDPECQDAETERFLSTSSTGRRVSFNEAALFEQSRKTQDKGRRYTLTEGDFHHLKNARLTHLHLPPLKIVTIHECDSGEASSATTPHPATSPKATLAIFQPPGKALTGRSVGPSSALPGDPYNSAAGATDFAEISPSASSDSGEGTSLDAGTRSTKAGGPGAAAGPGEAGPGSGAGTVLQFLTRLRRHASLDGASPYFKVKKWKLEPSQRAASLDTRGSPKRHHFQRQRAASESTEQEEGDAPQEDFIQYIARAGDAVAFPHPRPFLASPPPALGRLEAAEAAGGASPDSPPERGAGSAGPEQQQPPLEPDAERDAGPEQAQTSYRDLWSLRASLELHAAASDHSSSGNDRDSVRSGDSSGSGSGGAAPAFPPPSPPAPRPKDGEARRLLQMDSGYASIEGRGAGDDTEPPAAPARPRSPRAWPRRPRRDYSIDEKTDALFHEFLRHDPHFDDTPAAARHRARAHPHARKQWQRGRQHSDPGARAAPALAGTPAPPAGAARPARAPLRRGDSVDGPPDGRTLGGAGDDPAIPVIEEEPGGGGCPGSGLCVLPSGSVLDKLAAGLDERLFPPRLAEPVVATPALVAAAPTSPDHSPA

Only a part is listed here, and it is no random draw. Calls are pooled over several reports, among them a noisy single-well screen. This is one part of the list.

Holding throughout (settings): stereoisomer not certain
Assay [1] concerns T1, .
T1 sequence (whole entry): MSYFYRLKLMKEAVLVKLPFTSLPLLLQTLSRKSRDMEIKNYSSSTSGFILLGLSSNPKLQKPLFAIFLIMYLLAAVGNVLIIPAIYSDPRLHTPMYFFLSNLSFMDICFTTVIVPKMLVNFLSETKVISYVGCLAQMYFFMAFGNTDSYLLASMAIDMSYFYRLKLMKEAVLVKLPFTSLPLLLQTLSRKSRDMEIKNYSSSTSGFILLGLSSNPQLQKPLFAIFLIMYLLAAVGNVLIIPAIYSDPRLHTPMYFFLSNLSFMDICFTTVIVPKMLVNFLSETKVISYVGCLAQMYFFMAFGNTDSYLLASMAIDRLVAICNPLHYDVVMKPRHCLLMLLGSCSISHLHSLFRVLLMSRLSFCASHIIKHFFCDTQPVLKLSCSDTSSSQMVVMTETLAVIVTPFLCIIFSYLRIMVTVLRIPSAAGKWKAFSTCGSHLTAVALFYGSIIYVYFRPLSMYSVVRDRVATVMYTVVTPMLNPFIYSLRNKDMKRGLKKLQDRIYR
Put shortly:
(§1)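 Whether a receptor–molecule pair is responsive (active) rests on the original authors' judgment that its measured signal was statistically different from baseline. Pairs without that judgment are non-responsive (inactive). Sources used varied assay methods, commonly transient luciferase assays in mammalian cell lines.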

The subject of the next assay is T2, A0A140T8K0.
T2 sequence (whole entry): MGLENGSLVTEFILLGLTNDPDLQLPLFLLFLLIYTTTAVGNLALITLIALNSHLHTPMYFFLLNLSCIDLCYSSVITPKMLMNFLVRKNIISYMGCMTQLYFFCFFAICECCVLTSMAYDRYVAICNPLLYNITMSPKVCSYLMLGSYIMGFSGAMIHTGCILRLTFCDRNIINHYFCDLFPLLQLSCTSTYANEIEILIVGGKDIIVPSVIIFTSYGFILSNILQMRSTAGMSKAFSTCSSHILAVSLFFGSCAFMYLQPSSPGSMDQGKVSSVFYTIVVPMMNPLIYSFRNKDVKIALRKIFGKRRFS
In short, it runs like this: as §1

Another assay concerns T3, A0A140T8K4.
T3 sequence (whole entry): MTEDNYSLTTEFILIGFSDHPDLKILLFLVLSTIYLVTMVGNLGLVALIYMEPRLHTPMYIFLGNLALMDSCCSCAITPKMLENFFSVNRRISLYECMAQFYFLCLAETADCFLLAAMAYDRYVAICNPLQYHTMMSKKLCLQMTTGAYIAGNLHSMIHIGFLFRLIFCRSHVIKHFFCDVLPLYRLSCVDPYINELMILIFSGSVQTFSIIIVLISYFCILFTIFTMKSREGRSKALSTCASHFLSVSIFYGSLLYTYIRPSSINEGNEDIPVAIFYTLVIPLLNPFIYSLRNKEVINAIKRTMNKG
In short, it runs like this:
as §1

For the next assay, the system named is T4, A0A1L1SVG7.
T4 sequence (whole entry): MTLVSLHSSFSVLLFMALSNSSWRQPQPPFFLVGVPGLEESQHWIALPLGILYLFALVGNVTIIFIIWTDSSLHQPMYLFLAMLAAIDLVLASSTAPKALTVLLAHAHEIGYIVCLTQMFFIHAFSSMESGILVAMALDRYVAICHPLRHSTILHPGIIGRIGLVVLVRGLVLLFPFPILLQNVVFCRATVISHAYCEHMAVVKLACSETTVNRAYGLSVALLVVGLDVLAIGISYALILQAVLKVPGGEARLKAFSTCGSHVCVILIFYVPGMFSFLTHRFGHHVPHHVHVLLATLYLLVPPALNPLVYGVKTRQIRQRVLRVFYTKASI
Put shortly:
as §1

In another assay the test system is T5, O1020.
T5 sequence (whole entry): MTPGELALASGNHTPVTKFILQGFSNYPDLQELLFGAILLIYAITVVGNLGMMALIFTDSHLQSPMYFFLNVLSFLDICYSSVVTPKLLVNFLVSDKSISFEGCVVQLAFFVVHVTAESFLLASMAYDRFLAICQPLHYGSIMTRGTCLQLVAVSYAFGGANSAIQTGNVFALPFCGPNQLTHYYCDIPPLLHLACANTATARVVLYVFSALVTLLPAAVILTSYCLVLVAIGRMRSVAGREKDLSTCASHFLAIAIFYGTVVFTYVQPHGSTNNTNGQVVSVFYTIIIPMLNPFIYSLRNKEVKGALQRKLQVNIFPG
Put shortly:
as §1

The subject of another assay is T6, O1052.
T6 sequence (whole entry): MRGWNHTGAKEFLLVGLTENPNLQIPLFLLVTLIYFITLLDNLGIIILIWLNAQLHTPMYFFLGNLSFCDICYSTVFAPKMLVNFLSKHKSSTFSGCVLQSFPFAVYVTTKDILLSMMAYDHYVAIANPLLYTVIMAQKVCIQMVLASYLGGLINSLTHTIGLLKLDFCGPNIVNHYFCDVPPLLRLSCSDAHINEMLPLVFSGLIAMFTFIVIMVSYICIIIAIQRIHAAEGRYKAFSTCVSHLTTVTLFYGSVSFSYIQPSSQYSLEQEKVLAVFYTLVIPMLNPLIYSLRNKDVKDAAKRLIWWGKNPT
In short, it runs like this: as §1

Another assay deals with T7, O10A2.
T7 sequence (whole entry): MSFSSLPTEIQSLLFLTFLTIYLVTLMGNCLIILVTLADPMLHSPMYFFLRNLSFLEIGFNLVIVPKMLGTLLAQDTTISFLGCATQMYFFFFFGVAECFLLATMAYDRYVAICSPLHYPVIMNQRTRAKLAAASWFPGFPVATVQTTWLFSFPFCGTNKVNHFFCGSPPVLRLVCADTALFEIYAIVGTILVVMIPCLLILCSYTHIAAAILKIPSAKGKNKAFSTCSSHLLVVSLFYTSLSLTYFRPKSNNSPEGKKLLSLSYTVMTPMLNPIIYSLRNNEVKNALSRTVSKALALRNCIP
Put shortly:
as §1

For a further assay, the target named is CBARP (Homo sapiens) (UniProt Q8N350). Put shortly: as §1
The test system of the next assay is E1BBG9 I277T. Put shortly:
as §1

Another assay deals with E1BBG9 L105I I277T. In short, it runs like this: as §1
A further assay relates to E1BBG9 L105I V205I I277T. In short, it runs like this:
as §1

Another assay relates to E1BBG9 L105I V205I. Put shortly:
as §1

In a further assay the test system is E1BBG9 L105I. In short, it runs like this: as §1
Another assay relates to E1BBG9 V205I I277T. In short, it runs like this:
as §1

A further assay relates to E1BBG9 V205I. In short, it runs like this: as §1
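Also: active if original authors judged signal statistically different from baseline.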

`CCCCCC(=O)O`: the “odorant receptor agonist call” value (in [1]; with A0A140T8K0; in the assay on A0A140T8K4; in the assay with A0A1L1SVG7; with O1020; in the assay with O1052) was “inactive” throughout. In the assay with O10A2, the “odorant receptor agonist call” value is “inactive”.

Take `CCCCCCCCCCC=O`: the “odorant receptor agonist call” value (in [1]; in the assay with CBARP (Homo sapiens); with O1020; with O1052; in the assay with O10A2) was “inactive” each time.

For `O=C1CCCCCCCCCCCCCCO1`, the “odorant receptor agonist call” value (in assay [1]; with A0A140T8K0; in the assay on O1020; in the assay with O1052; in the assay with O10A2) was “inactive” each time.

On to `CC(=O)OC1CC2CCC1(C)C2(C)C` (stereo not given), for which the “odorant receptor agonist call” value (in assay [1]; in the assay with A0A140T8K0; in the assay with O1020; in the assay on O1052; with O10A2) was “inactive” in each case.

`CC=Cc1ccc(O)c(OC)c1`: the “odorant receptor agonist call” value (in assay [1]; with O1052; with O10A2) was “inactive” each time. Also, the “odorant receptor agonist call” value in the assay with O1020 is “active”.

For `CCCCCCCC=CC=O`, the “odorant receptor agonist call” value (in [1]; in the assay with O1020; with O1052; in the assay with O10A2) was “inactive” each time.

Consider `C=C(C)C1CC=C(C)C(=O)C1` (stereo not given), for which the “odorant receptor agonist call” value in the assay with A0A140T8K0 and in the assay with A0A1L1SVG7 was “inactive” each time. Further, the “odorant receptor agonist call” value with A0A140T8K4, in the assay with E1BBG9 I277T, with E1BBG9 L105I I277T, in the assay on E1BBG9 L105I V205I I277T, in the assay on E1BBG9 L105I V205I and in the assay with E1BBG9 L105I was “active” each time. Also, the “odorant receptor agonist call” value in the assay on E1BBG9 V205I I277T and in the assay on E1BBG9 V205I was “active” in each case.

For the compound `CCC1(O)C2(C)CCC(C2)C1(C)C` (stereo not given), the “odorant receptor agonist call” value (in [1]; in the assay on O1020; in the assay on O1052; with O10A2) was “inactive” throughout.

On to `COc1cc(C)ccc1O`, for which the “odorant receptor agonist call” value (in assay [1]; in the assay with O1020; in the assay with O1052; in the assay with O10A2) was “inactive” in each case.

Consider `CC1=CCC(C(C)(C)O)CC1` (stereo not given), for which the “odorant receptor agonist call” value (in assay [1]; with O1020; in the assay on O1052; in the assay with O10A2) was “inactive” in each case.

In the case of `COC(=O)c1ccccc1`, the “odorant receptor agonist call” value (in [1]; in the assay on O1020; with O1052; with O10A2) was “inactive” each time.

Turning to `CC12C=CCC1C1CCC3CC(=O)CCC3(C)C1CC2` (stereo not given), the “odorant receptor agonist call” value in [1] was “inactive”. Also, the “odorant receptor agonist call” value in the assay on O1020, with O1052 and with O10A2 was “active” throughout.

On to `C=CCc1ccc(O)c(OC)c1`, for which the “odorant receptor agonist call” value with A0A140T8K0 is “inactive”.

Turning to `CC(C)(C)c1ccc(CCC=O)cc1`, the “odorant receptor agonist call” value (in assay [1]; in the assay on O1020; with O1052; in the assay with O10A2) was “inactive” in each case.

Turning to `O=C1CCCCCCCCCCCC(=O)OCCO1`, the “odorant receptor agonist call” value (in assay [1]; in the assay on O1020; in the assay on O1052; in the assay with O10A2) was “inactive” each time.

As to `CCC=CCCO`, the “odorant receptor agonist call” value (in [1]; in the assay on O1020; in the assay with O1052; in the assay on O10A2) was “inactive” each time.

As for `CC(=O)OCC=C(C)CCC=C(C)C`, the “odorant receptor agonist call” value (in assay [1]; with O1052; in the assay with O10A2) was “inactive” in each case. Further, the “odorant receptor agonist call” value in the assay with O1020 is “active”.

Turning to `C=CCc1ccc(OC(C)=O)c(OC)c1`, the “odorant receptor agonist call” value in assay [1] is “active”. In addition, the “odorant receptor agonist call” value in the assay on O1020, with O1052 and with O10A2 was “inactive” throughout.

Take `CCCCCCCCC=O`: the “odorant receptor agonist call” value with A0A140T8K0 and in the assay on A0A140T8K4 was “inactive” throughout. The “odorant receptor agonist call” value in the assay on A0A1L1SVG7 was “active”.

Turning to `CCCC(=O)O`, the “odorant receptor agonist call” value (in [1]; with O1020; with O1052; in the assay with O10A2) was “inactive” each time.

On to `CC1=NC(C)SC1C` (stereo not given), for which the “odorant receptor agonist call” value (in assay [1]; with O1020; in the assay with O1052; in the assay with O10A2) was “inactive” in each case.

On to `C=CCSCC=C`, for which the “odorant receptor agonist call” value (in assay [1]; in the assay on O1020; in the assay on O1052; in the assay on O10A2) was “inactive” throughout.

Consider `CCCCCCOC(=O)CCC`, for which the “odorant receptor agonist call” value (in assay [1]; with O1020; with O1052; in the assay with O10A2) was “inactive” throughout.

In the case of `CC(C)C(=O)O`, the “odorant receptor agonist call” value (in assay [1]; in the assay with O1020; in the assay on O1052; in the assay with O10A2) was “inactive” throughout.

As to `CC12C=CCC1C1CCC3=CC(=O)CCC3(C)C1CC2` (stereo not given), the “odorant receptor agonist call” value (in [1]; in the assay with O1020; in the assay on O1052; in the assay on O10A2) was “inactive” each time.

With `CC1CCC(C(C)C)C(O)C1` (stereo not given), the “odorant receptor agonist call” value (in assay [1]; in the assay with O1020; in the assay with O1052; in the assay with O10A2) was “inactive” throughout.

Regarding `CC(C)CCC(=O)O`, the “odorant receptor agonist call” value (in assay [1]; in the assay with O1020; in the assay with O1052; in the assay on O10A2) was “inactive” in each case.

As for `O=CCc1ccccc1`, the “odorant receptor agonist call” value (in assay [1]; with O1020; in the assay with O1052; in the assay with O10A2) was “inactive” each time.

For `CCCCCCCCOC(C)=O`, the “odorant receptor agonist call” value (in assay [1]; with O1020; in the assay on O1052; with O10A2) was “inactive” each time.

Regarding `CC(C)(O)CCCC1=CCC(C=O)CC1` (stereo not given), the “odorant receptor agonist call” value in the assay with A0A140T8K0, with A0A140T8K4 and in the assay with A0A1L1SVG7 was “inactive” throughout.

In the case of `CCCCCCC=O`, the “odorant receptor agonist call” value in the assay on A0A140T8K0, in the assay on A0A140T8K4 and in the assay with A0A1L1SVG7 was “inactive” throughout.
